From PMC10411793 come the findings set out here.

Amino acid sequences for entries named in this document (tags omitted). Residues count along the entry.
UniProt Q99IB8, residues 1977-2442: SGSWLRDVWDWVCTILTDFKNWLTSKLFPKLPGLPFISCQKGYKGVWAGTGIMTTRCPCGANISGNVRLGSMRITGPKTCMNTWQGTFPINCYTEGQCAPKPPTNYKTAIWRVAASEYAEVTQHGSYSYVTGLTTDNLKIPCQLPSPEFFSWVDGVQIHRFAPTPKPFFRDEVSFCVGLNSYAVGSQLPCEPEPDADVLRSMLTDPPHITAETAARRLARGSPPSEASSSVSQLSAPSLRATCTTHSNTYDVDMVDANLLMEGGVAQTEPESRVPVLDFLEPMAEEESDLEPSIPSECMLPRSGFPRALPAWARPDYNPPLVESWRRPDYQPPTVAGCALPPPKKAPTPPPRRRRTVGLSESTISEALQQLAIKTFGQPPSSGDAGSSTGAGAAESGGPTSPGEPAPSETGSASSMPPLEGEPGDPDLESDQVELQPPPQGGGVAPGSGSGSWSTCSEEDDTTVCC
UniProt P02649, residues 19-317: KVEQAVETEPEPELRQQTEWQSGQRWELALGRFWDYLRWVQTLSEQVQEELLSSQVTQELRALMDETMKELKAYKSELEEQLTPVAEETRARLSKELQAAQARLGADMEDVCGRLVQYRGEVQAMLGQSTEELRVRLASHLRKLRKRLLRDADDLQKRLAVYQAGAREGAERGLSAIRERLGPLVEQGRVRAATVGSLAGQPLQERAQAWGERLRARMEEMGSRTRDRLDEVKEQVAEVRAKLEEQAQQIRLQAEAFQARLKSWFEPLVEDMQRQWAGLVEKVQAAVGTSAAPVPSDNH

This experiment has as its target myc-tagged NS5A wildtype (hepatitis C virus, strain JFH1) (UniProt Q99IB8). The experiment in a line: co-IP; HEK293T-miR122 cells co-transfected with HA-tagged ApoE and myc-tagged NS5A; lysed 30 h after transfection in 50 mM Tris-HCl pH 7.5, 150 mM NaCl, 1% Triton X-100, 1 mM EDTA, 10% glycerol; IP with rabbit anti-c-myc antibody and protein G beads at 4°C; Western blot with anti-HA antibody.

These are yes or no findings as the source states them, for the method shown. Binding seen in cells or lysates may run through a third protein. Some results given as binding are weak or reduced against the parent protein; the word gives no strength.

“HA-tagged ApoE (from UniProt P02649 19-317)”: the binding result is “binds”.
